Results are given in words; binding and its absence hold for the method and conditions named. For some assays here: Binding seen in cells or lysates may run through a third protein. Some results given as binding are weak or reduced against the parent protein; the word gives no strength.
Tests used:
BCL-2 (human) = BCL-2 (human) (UniProt P10415); assay: co-immunoprecipitation from mRNA-transfected cells
BCL-XL (human) = BCL-XL (human) (UniProt Q07817); assay: co-immunoprecipitation from mRNA-transfected cells
MCL-1 (human) = MCL-1 (human) (UniProt Q07820); assay: co-immunoprecipitation from lysates of mRNA-transfected HeLa cells
MDM2 [1] = target: MDM2 (UniProt Q00987); assay: immunoprecipitation from transfected HCT116 cells (FIG. 26)
MDM2 [2] = target: MDM2 (UniProt Q00987); assay: anti-V5 immunoprecipitation from transfected HCT116 cell lysates, blot probed with anti-MDM2

The chains behind the UniProt entries cited, without tags or fusion partners. Where a name states a change or a piece, a line headed by the entry shows the natural chain unless it says otherwise.
UniProt P10415: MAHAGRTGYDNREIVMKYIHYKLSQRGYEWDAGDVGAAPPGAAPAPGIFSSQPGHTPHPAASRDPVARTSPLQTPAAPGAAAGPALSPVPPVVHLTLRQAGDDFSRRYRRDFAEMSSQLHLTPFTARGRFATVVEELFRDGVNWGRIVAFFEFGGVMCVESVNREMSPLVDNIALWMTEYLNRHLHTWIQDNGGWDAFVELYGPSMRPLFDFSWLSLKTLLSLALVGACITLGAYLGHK
UniProt Q07817: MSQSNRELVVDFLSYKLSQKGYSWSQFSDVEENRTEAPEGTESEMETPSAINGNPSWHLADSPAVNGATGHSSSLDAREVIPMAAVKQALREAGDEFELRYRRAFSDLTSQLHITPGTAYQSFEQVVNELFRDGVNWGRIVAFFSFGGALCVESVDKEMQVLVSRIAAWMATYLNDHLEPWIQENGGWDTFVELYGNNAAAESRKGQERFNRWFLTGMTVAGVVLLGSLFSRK
UniProt Q07820: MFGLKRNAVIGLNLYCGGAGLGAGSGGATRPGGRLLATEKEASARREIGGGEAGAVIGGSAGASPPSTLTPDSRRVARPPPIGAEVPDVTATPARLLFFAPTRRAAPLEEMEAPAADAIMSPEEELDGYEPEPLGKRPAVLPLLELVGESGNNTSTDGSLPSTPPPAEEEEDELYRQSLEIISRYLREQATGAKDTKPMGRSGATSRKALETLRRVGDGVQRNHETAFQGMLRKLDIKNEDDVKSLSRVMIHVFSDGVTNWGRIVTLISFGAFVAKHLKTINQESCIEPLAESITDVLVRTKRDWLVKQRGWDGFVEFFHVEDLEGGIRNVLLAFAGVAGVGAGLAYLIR
UniProt Q00987: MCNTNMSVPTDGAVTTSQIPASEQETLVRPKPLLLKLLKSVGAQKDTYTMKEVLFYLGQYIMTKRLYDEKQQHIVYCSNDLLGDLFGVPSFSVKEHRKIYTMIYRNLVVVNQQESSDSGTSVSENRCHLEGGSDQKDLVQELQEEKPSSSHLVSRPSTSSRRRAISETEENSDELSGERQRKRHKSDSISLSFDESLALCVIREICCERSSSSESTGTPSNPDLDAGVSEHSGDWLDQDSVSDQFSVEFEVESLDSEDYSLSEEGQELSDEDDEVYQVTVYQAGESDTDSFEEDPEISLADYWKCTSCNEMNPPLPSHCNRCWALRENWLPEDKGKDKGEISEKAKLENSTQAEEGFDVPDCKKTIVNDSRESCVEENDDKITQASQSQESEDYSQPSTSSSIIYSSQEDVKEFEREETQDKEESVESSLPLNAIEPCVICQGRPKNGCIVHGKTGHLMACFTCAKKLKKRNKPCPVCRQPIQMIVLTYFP

| binding (BCL-2 (human)) | binding (BCL-XL (human)) | binding (MCL-1 (human)) | binding (MDM2 [1]) | binding (MDM2 [2]) | Binder |
| --- | --- | --- | --- | --- | --- |
| binds | binds | – | – | – | SQT-Bad-BH3 (designed binder) MIPRNLWAAQRYGRELRRMSDEFVDSFKKGGLSEAKPATPEIQEIVDKVKPQLEEKTNETYGKLEAVQYKTQVLASTNYYIKVRAGDNKYMHLKVFNGPPGQNADRVLTGYQVDKNKDDELTGFDYKDDDDK |
| – | – | binds | – | – | SQT-Noxa-BH3 (designed binder) MIPRPAELEVECATQLRRFGDKLNFRQKLLGLSEAKPATPEIQEIVDKVKPQLEEKTNETYGKLEAVQYKTQVLASTNYYIKVRAGDNKYMHLKVFNGPPGQNADRVLTGYQVDKNKDDELTGFDYKDDDDK |
| binds | binds | binds | – | – | SQT-PUMA-BH3 (designed binder) MIPREEQWAREIGAQLRRMADDLNAQYERRGLSEAKPATPEIQEIVDKVKPQLEEKTNETYGKLEAVQYKTQVLASTNYYIKVRAGDNKYMHLKVFNGPPGQNADRVLTGYQVDKNKDDELTGFDYKDDDDK |
| – | – | – | binds | binds | SQT(MDM2)(nt).P3848.cV5 (designed binder) MIPRLTFEHYWAQLTSGLSEAKPATPEIQEIVDKVKPQLEEKTNETYGKLEAVQYKTQVLASTNYYIKVRAGDNKYMHLKVFNGPPGQNADRVLTGYQVDKNKDDELTGFGKPIPNPLLGLDST |

Source: patent US20190119357A1, “MESSENGER RIBONUCLEIC ACIDS FOR THE PRODUCTION OF INTRACELLULAR BINDING POLYPEPTIDES AND METHODS OF USE THEREOF” (ModernaTX, Inc., priority 2015, published 2019)
